From patent US8389766B2, “Insecticidal compounds” (Syngenta Crop Protection LLC, priority 2006, dated 2013)
Some of these results come from one statement about several compounds together.

How the values were obtained:
Type in all cases: in vivo
Spodoptera littoralis = Spodoptera littoralis (Egyptian cotton leafworm) cotton leaf disc spray test; settings: 200 ppm sprayed on cotton leaf discs, 5 L1 larvae; mortality, feeding behaviour, growth regulation 3 DAT
Plutella xylostella = Plutella xylostella (diamond back moth) larvae test on artificial diet; settings: 200 ppm (concentration in well 18 ppm), L2 larvae, larval mortality, growth regulation after 6 days
Tetranychus urticae = Tetranychus urticae (two-spotted spider mite) bean leaf disc spray test; settings: 200 ppm sprayed on bean leaf discs, mixed ages; egg, larval and adult mortality 8 days later
Heliothis virescens = Heliothis virescens (tobacco budworm) egg test on artificial diet; settings: 200 ppm (concentration in well 18 ppm), eggs 0-24 h old on artificial diet; egg mortality, larval mortality, growth regulation after 4 days
Diabrotica balteata = Diabrotica balteata (corn root worm) larvae test on artificial diet; settings: 200 ppm (concentration in well 18 ppm), L2 larvae, larval mortality, growth regulation after 5 days
Thrips tabaci = Thrips tabaci (onion thrips) sunflower leaf disc spray test; settings: 200 ppm sprayed on sunflower leaf discs, mixed ages; mortality after 7 days

Cc1ccccc1C(=O)Nc1cc(C(=O)Nc2c(C)cc(C(F)(C(F)(F)F)C(F)(F)C(F)(F)F)cc2Br)ccc1C#N (stereo not drawn) [A102]
at least 80%: control of Spodoptera littoralis (Spodoptera littoralis) | control of Plutella xylostella (Plutella xylostella) | control of Tetranychus urticae (Tetranychus urticae) | control of Heliothis virescens (Heliothis virescens) | control of Diabrotica balteata (Diabrotica balteata) | control of Thrips tabaci (Thrips tabaci)

Cc1cc(C(F)(C(F)(F)F)C(F)(F)C(F)(F)F)cc(Br)c1NC(=O)c1ccc(C#N)c(NC(=O)c2ccc([N+](=O)[O-])cc2Cl)c1 (stereo not drawn) [A107]
at least 80%: control of Spodoptera littoralis (Spodoptera littoralis) | control of Plutella xylostella (Plutella xylostella) | control of Tetranychus urticae (Tetranychus urticae) | control of Heliothis virescens (Heliothis virescens) | control of Diabrotica balteata (Diabrotica balteata) | control of Thrips tabaci (Thrips tabaci)

Cc1cc(C(F)(C(F)(F)F)C(F)(F)C(F)(F)F)cc(Br)c1NC(=O)c1ccc(C#N)c(NC(=O)c2ccco2)c1 (stereo not drawn) [A108]
at least 80%: control of Spodoptera littoralis (Spodoptera littoralis) | control of Plutella xylostella (Plutella xylostella) | control of Tetranychus urticae (Tetranychus urticae) | control of Heliothis virescens (Heliothis virescens) | control of Diabrotica balteata (Diabrotica balteata) | control of Thrips tabaci (Thrips tabaci)

Cc1cc(C(F)(C(F)(F)F)C(F)(F)C(F)(F)F)cc(Br)c1NC(=O)c1ccc(C#N)c(NC(=O)c2ccc(F)cc2)c1 (stereo not drawn) [A115]
at least 80%: control of Spodoptera littoralis (Spodoptera littoralis) | control of Plutella xylostella (Plutella xylostella) | control of Tetranychus urticae (Tetranychus urticae) | control of Heliothis virescens (Heliothis virescens) | control of Diabrotica balteata (Diabrotica balteata) | control of Thrips tabaci (Thrips tabaci)

Cc1cc(C(F)(C(F)(F)F)C(F)(F)C(F)(F)F)cc(Br)c1NC(=O)c1ccc(C#N)c(NC(=O)c2ccc(F)cc2Cl)c1 (stereo not drawn) [A116]
at least 80%: control of Spodoptera littoralis (Spodoptera littoralis) | control of Plutella xylostella (Plutella xylostella) | control of Tetranychus urticae (Tetranychus urticae) | control of Heliothis virescens (Heliothis virescens) | control of Diabrotica balteata (Diabrotica balteata) | control of Thrips tabaci (Thrips tabaci)

Cc1cc(C(F)(C(F)(F)F)C(F)(F)C(F)(F)F)cc(Br)c1NC(=O)c1ccc(C#N)c(NC(=O)c2snnc2C)c1 (stereo not drawn) [A117]
at least 80%: control of Spodoptera littoralis (Spodoptera littoralis) | control of Plutella xylostella (Plutella xylostella) | control of Tetranychus urticae (Tetranychus urticae) | control of Heliothis virescens (Heliothis virescens) | control of Diabrotica balteata (Diabrotica balteata) | control of Thrips tabaci (Thrips tabaci)

CCc1cc(C(F)(C(F)(F)F)C(F)(F)F)cc(Br)c1NC(=O)c1ccc(C#N)c(NC(=O)c2ccccc2Cl)c1 [A123]
at least 80%: control of Spodoptera littoralis (Spodoptera littoralis) | control of Plutella xylostella (Plutella xylostella) | control of Tetranychus urticae (Tetranychus urticae) | control of Heliothis virescens (Heliothis virescens) | control of Diabrotica balteata (Diabrotica balteata) | control of Thrips tabaci (Thrips tabaci)

CCc1cc(C(F)(C(F)(F)F)C(F)(F)F)cc(Br)c1NC(=O)c1ccc(C#N)c(NC(=O)c2ccc(C#N)cc2)c1 [A124]
at least 80%: control of Spodoptera littoralis (Spodoptera littoralis) | control of Plutella xylostella (Plutella xylostella) | control of Tetranychus urticae (Tetranychus urticae) | control of Heliothis virescens (Heliothis virescens) | control of Diabrotica balteata (Diabrotica balteata) | control of Thrips tabaci (Thrips tabaci)

CCc1cc(C(F)(C(F)(F)F)C(F)(F)F)cc(Br)c1NC(=O)c1ccc(C#N)c(NC(=O)c2ccc([N+](=O)[O-])cc2)c1 [A125]
at least 80%: control of Spodoptera littoralis (Spodoptera littoralis) | control of Plutella xylostella (Plutella xylostella) | control of Tetranychus urticae (Tetranychus urticae) | control of Heliothis virescens (Heliothis virescens) | control of Diabrotica balteata (Diabrotica balteata) | control of Thrips tabaci (Thrips tabaci)

CCc1cc(C(F)(C(F)(F)F)C(F)(F)F)cc(Br)c1NC(=O)c1ccc(C#N)c(NC(=O)c2ccc([N+](=O)[O-])cc2Cl)c1 [A127]
at least 80%: control of Spodoptera littoralis (Spodoptera littoralis) | control of Plutella xylostella (Plutella xylostella) | control of Tetranychus urticae (Tetranychus urticae) | control of Heliothis virescens (Heliothis virescens) | control of Diabrotica balteata (Diabrotica balteata) | control of Thrips tabaci (Thrips tabaci)
